Results are given in words; binding and its absence hold for the method and conditions named. In cells and extracts the contact can be indirect. These calls come from enrichment with a bait or labelling near it, and not all partners need be listed.

By UniProt entry, the sequences of proteins in these tests, tags left out.
UniProt Q9H4A3: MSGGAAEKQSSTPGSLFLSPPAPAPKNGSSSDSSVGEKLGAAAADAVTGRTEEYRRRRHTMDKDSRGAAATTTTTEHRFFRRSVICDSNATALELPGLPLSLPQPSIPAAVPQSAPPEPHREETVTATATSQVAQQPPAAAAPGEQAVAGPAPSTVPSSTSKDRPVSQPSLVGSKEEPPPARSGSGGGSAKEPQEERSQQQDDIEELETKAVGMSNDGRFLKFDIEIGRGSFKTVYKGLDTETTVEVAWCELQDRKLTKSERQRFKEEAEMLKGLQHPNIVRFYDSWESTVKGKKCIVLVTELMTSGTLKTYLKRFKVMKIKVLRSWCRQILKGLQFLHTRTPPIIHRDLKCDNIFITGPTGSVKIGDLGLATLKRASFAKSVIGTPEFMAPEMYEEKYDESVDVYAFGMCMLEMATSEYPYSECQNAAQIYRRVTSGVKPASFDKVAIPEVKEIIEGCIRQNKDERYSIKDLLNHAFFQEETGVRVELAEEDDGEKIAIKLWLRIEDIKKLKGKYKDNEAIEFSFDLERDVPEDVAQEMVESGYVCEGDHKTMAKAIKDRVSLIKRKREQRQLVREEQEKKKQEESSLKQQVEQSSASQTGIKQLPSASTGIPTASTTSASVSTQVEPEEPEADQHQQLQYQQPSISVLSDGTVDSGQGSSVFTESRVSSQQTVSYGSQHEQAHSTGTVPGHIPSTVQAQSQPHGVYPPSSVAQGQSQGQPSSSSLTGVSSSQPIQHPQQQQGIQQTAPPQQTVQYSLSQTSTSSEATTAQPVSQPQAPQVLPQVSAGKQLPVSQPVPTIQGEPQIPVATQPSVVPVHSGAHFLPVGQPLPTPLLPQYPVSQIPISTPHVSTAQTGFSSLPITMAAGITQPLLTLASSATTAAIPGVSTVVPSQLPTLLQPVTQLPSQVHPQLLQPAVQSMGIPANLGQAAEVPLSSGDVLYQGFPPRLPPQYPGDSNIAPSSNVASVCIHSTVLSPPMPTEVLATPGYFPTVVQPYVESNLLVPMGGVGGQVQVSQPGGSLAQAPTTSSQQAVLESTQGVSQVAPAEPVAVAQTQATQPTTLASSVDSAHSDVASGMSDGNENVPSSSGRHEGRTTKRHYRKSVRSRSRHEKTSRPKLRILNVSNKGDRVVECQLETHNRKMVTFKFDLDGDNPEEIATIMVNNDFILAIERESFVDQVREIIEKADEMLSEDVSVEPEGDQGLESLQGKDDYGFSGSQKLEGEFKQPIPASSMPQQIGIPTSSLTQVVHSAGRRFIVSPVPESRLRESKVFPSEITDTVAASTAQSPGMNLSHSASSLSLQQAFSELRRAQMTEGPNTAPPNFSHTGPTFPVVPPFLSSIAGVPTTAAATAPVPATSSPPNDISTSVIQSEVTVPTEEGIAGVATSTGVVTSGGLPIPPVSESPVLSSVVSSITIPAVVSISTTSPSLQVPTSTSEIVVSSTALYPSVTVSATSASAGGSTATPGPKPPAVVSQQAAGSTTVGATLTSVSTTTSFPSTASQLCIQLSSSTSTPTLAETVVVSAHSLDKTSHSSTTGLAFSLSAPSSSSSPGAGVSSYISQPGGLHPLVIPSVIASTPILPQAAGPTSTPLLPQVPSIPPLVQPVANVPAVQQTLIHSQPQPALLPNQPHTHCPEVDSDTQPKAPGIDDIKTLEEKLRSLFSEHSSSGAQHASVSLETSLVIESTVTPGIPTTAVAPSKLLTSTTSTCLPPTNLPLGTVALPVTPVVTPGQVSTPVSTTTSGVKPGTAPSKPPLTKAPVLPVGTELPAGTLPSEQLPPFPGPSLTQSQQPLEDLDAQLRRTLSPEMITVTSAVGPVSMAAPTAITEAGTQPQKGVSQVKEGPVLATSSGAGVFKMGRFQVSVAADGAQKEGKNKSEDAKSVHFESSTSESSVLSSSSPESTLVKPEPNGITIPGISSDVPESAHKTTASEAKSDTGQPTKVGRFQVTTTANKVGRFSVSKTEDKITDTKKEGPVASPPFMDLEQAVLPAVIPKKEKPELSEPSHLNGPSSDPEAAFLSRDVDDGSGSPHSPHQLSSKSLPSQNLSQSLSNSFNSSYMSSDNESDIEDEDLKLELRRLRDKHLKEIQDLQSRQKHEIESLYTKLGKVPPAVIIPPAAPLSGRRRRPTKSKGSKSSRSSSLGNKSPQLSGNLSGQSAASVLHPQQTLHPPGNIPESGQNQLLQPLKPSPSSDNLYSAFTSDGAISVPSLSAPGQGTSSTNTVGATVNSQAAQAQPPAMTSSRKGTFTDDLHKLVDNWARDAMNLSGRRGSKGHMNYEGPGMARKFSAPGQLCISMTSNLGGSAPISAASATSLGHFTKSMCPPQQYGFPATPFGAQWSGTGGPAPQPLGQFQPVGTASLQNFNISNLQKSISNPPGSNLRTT
UniProt Q9UHY1: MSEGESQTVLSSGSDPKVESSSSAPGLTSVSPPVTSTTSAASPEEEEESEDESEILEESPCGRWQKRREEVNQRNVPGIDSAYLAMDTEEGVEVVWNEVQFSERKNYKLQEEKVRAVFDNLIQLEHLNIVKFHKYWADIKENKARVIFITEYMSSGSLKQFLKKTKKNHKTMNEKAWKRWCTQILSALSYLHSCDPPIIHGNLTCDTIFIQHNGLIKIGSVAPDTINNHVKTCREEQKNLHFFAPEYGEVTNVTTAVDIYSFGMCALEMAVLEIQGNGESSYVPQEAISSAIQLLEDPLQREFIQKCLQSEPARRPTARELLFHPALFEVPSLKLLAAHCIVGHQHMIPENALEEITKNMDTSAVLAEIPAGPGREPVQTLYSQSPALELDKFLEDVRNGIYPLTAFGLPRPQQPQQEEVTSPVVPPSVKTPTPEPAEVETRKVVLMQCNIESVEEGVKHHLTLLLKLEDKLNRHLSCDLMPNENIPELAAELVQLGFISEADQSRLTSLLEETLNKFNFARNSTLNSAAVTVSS
UniProt Q15370: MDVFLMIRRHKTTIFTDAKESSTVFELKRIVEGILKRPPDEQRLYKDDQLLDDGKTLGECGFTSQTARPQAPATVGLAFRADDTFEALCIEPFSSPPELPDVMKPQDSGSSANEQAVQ
UniProt Q9Y3S1: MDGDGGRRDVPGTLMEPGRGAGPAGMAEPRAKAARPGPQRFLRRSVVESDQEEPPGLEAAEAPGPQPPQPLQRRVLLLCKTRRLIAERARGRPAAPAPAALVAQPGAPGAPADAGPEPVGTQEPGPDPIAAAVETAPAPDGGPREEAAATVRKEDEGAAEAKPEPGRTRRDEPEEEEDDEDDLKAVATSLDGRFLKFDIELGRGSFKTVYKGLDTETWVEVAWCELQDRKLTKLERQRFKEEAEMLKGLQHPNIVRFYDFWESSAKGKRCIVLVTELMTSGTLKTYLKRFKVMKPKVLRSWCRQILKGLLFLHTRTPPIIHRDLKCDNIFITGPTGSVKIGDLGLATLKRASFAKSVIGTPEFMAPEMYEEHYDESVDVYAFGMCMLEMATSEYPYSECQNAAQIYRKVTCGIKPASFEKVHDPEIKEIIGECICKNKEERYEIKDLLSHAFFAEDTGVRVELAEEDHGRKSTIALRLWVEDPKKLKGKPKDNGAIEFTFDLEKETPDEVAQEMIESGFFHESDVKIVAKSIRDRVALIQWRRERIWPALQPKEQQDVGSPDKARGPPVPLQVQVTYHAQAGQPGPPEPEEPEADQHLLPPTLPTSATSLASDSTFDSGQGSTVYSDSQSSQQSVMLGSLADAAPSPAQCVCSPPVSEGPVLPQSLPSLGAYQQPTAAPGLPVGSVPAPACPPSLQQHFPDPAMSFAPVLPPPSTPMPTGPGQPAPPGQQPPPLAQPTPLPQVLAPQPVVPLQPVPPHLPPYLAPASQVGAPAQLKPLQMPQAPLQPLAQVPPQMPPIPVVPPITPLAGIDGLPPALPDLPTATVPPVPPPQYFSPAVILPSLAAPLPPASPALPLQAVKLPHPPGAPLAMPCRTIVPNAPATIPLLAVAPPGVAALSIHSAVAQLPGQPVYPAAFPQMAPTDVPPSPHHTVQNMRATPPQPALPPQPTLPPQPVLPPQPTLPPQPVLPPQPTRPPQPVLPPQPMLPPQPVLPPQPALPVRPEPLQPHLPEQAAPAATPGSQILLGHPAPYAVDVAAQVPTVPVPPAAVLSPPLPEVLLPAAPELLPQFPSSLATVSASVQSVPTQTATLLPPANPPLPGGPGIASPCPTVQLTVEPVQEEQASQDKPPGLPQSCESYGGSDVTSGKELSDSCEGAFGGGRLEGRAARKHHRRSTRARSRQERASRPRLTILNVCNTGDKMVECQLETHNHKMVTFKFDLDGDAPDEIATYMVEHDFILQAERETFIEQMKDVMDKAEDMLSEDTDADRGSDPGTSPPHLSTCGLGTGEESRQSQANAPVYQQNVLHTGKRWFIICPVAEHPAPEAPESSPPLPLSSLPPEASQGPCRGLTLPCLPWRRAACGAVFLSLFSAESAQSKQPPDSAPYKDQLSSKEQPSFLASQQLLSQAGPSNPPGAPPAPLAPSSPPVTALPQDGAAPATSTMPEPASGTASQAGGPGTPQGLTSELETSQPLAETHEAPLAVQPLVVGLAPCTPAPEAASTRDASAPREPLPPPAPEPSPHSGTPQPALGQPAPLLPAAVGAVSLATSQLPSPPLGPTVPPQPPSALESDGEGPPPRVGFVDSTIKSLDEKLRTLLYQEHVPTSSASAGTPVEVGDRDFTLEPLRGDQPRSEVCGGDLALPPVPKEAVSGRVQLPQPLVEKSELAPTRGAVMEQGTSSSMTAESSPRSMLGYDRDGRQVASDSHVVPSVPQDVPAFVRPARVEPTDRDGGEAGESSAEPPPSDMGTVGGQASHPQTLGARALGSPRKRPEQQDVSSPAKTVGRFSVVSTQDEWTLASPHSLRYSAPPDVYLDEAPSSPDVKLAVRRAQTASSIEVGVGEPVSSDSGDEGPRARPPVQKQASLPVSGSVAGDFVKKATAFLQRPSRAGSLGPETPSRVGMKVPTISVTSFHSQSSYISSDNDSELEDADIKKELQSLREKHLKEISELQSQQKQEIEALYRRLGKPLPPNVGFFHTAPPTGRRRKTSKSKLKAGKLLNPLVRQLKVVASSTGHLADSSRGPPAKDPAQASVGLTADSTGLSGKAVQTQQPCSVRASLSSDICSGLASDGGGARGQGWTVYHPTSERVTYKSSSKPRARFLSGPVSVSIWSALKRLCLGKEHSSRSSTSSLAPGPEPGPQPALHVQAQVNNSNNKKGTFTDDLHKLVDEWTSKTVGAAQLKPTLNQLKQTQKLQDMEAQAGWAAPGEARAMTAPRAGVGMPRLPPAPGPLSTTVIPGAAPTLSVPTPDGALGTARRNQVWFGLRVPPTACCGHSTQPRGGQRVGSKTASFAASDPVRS
UniProt O95747: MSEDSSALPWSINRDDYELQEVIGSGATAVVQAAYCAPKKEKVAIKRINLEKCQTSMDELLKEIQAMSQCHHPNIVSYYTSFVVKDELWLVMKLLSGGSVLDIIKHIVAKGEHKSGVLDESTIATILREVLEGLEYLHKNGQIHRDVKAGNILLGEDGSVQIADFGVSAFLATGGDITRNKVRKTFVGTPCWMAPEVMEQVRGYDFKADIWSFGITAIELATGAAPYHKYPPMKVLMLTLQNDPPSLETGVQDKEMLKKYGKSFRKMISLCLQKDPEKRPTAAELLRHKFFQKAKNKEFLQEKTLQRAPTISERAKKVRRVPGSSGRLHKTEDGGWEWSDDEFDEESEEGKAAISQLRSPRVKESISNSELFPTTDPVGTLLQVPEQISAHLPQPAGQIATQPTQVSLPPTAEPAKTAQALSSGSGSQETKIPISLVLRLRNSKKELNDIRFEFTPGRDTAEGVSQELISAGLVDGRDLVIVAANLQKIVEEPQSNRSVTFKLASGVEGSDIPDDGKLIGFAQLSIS
UniProt O00459: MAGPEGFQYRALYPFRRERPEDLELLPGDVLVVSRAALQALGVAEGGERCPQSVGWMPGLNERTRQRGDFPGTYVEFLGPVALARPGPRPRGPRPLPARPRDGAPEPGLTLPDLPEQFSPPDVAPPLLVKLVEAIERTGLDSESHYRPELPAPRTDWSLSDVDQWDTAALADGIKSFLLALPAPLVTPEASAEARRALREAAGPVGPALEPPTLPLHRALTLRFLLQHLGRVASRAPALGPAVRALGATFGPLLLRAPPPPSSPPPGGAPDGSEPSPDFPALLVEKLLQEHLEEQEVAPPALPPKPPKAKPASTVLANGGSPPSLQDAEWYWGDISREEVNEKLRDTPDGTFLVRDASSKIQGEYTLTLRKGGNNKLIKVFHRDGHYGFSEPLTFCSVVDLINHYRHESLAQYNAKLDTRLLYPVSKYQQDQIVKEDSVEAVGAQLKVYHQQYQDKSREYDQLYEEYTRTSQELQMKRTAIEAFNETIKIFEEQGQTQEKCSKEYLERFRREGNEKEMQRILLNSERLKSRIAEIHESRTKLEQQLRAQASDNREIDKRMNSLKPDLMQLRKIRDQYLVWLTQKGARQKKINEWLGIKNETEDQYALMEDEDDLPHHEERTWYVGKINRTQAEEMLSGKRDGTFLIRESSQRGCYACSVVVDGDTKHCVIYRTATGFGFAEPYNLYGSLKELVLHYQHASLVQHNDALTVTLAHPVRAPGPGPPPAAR

For one test, the target named is GFP-WNK1 (N-terminal GFP knock-in at the endogenous WNK1 locus) (human (endogenous in HEK293)) (UniProt Q9H4A3). The experiment in a line: proximity labelling; GFP-WNK1 TurboID cells with or without 0.5 M sorbitol; streptavidin magnetic bead pull-down from 2 mg lysate; immunoblot (Fig. 1F). (Immunoblotting shows a protein as a band on a membrane.)
As to “nuclear receptor binding protein 1 (NRBP1), endogenous (from UniProt Q9UHY1 1-535)”, the binding result was “binds”.

The target is the same in a further test. The experiment in a line: proximity labelling; GFP-WNK1 KI and WT HEK293 cells expressing Flag-TurboID-aGFP6M; 0.5 mM biotin with or without 0.5 M sorbitol for 5 min; streptavidin enrichment from lysate; DIA mass spectrometry.
Consider “ELOB, endogenous (from UniProt Q15370 1-118)”, for which the binding entry is “binds”. As for “WNK2, endogenous (from UniProt Q9Y3S1 1-2297)”, the binding entry was “binds”. For “WNK3, endogenous (from UniProt Q9BYP7 1-1800)”, the binding result is listed as “binds”. As for “nuclear receptor binding protein 1 (NRBP1), endogenous (from UniProt Q9UHY1 1-535)”, the binding result is “binds”.

“oxidative stress responsive 1 kinase (OXSR1), endogenous (from UniProt O95747 1-527)”: the binding result is “binds”.

The target in a further test is GFP-NRBP1 (N-terminal GFP knock-in at the endogenous NRBP1 locus) (human (endogenous in HEK293)) (UniProt Q9UHY1). The experiment in a line: affinity purification with mass spectrometry; GFP-NRBP1 KI and WT HEK293 cells with or without 0.5 M sorbitol for 30 min; lysis in 20 mM Hepes pH 7.5, 150 mM NaCl, 0.5% NP-40; GFP-Trap magnetic beads, 4°C, 2 hours; DIA mass spectrometry.
“ELOB, endogenous (from UniProt Q15370 1-118)”: the binding result is “binds”. On to “FAM117B, endogenous (from UniProt Q6P1L5 1-589)”, for which the binding entry is “binds”. Regarding “HOXC11, endogenous (from UniProt O43248 1-304)”, the binding result is on record as “binds”. Still for that read-out and setting: the value for “KCTD3, endogenous (from UniProt Q9Y597 1-815)” was “binds”; that for LOXL1, endogenous (from UniProt Q08397) was “binds”. “MYO5B, endogenous (from UniProt Q9ULV0 1-1848)”: the binding result is given as “binds”. As for “PIK3R1, endogenous (from UniProt P27986 1-724)”, the binding result is listed as “binds”.

For “PIK3R2, endogenous (from UniProt O00459 1-728)”, the binding result is “binds”. As to “PIK3R3, endogenous (from UniProt Q92569 1-461)”, the binding result was “binds”. In the case of “PSME3, endogenous (from UniProt P61289 1-254)”, the binding entry is recorded as “binds”. Turning to “SHKBP1, endogenous (from UniProt Q8TBC3 1-707)”, the binding entry is reported as “binds”.

Take “SMARCA1, endogenous (from UniProt P28370 1-1042)”: the binding entry is “binds”. Take “TUBB4A, endogenous (from UniProt P04350 1-444)”: the binding entry was “binds”. “WNK1, endogenous (from UniProt Q9H4A3 1-2382)”: the binding entry is “binds”. On the same count and under the same terms, in the case of “WNK2, endogenous (from UniProt Q9Y3S1 1-2297)” it was “binds”. On the same count and under the same terms, in the case of “WNK3, endogenous (from UniProt Q9BYP7 1-1800)” it was “binds”; in that of “βTrCP1/FBXW1A, endogenous (from UniProt Q9Y297 1-605)”, “binds”; in that of “βTrCP2/FBXW1B, endogenous (from UniProt Q9UKB1 1-542)”, “binds”.

The record behind these values is PMC12266122.
